Experimental data taken from the supplement of paper PMC10849652.
Some of the results follow.

Sequences of proteins named here, by UniProt entry; tags and fusion partners are left off. A change or cut given only in a name is not applied to a line headed by its entry.
UniProt Q8TAQ2, whole entry, looked up: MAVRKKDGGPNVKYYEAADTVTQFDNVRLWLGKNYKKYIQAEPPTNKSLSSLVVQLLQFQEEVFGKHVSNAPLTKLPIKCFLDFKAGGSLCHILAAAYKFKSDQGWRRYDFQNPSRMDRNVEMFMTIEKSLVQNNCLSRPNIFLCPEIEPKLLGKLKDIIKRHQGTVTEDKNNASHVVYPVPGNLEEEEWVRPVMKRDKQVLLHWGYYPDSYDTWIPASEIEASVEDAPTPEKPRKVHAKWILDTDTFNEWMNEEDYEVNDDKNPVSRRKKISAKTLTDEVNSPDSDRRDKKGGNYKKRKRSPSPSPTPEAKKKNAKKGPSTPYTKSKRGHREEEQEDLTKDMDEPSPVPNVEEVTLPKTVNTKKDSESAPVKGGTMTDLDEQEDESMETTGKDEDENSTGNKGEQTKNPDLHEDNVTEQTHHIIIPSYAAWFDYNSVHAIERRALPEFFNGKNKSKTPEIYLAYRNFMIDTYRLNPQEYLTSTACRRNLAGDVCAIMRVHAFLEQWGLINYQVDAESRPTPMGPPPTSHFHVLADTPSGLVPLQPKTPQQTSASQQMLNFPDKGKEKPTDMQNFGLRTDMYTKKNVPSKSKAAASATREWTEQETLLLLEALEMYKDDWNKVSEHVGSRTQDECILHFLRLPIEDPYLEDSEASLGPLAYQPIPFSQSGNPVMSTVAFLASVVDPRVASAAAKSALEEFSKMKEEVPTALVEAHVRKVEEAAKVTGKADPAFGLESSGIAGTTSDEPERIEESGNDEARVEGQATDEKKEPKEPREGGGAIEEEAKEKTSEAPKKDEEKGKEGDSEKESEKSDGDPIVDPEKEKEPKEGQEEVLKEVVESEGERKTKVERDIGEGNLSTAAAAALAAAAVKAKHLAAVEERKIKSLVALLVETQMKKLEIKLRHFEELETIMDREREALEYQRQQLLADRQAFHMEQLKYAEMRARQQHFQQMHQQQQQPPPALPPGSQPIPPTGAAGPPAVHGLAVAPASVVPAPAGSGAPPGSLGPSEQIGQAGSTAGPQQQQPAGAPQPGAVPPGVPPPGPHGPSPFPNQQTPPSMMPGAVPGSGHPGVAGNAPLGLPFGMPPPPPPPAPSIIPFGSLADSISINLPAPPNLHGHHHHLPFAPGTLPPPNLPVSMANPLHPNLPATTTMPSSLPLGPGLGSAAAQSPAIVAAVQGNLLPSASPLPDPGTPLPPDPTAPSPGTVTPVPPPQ
UniProt P52788: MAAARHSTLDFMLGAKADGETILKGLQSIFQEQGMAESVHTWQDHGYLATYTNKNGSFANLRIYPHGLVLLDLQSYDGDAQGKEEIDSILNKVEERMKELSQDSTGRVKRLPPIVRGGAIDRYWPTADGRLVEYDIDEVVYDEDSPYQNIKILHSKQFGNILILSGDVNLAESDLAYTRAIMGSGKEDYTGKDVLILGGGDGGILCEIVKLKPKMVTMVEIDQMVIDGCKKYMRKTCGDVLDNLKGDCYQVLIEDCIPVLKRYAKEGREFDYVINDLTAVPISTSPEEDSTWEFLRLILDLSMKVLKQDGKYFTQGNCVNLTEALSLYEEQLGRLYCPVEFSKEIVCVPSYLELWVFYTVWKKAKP
UniProt P19634, whole entry, looked up: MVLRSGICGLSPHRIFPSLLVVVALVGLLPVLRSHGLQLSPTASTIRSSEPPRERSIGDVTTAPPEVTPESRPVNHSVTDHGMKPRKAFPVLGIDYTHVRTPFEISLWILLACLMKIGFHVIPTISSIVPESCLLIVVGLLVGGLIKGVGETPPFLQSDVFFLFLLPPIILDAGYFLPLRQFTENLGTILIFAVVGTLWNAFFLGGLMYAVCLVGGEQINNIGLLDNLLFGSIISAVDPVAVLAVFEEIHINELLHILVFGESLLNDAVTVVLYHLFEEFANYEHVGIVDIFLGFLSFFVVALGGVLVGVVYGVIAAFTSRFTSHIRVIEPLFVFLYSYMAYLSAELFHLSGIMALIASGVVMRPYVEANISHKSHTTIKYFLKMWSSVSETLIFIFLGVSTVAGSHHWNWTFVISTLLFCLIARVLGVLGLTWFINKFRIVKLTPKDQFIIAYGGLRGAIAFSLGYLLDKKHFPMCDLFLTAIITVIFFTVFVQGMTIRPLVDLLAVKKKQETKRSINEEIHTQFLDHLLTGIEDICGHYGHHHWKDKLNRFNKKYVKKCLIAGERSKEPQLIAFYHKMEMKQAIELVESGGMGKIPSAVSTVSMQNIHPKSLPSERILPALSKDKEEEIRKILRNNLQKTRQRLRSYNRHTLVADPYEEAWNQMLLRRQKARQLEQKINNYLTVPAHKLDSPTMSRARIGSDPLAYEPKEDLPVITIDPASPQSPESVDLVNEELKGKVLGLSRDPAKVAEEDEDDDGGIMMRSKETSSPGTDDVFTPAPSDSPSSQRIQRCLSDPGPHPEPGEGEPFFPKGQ
UniProt Q96EX1: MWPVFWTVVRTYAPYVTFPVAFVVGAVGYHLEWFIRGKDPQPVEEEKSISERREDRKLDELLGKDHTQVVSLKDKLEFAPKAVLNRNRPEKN
UniProt O95347, whole entry, looked up: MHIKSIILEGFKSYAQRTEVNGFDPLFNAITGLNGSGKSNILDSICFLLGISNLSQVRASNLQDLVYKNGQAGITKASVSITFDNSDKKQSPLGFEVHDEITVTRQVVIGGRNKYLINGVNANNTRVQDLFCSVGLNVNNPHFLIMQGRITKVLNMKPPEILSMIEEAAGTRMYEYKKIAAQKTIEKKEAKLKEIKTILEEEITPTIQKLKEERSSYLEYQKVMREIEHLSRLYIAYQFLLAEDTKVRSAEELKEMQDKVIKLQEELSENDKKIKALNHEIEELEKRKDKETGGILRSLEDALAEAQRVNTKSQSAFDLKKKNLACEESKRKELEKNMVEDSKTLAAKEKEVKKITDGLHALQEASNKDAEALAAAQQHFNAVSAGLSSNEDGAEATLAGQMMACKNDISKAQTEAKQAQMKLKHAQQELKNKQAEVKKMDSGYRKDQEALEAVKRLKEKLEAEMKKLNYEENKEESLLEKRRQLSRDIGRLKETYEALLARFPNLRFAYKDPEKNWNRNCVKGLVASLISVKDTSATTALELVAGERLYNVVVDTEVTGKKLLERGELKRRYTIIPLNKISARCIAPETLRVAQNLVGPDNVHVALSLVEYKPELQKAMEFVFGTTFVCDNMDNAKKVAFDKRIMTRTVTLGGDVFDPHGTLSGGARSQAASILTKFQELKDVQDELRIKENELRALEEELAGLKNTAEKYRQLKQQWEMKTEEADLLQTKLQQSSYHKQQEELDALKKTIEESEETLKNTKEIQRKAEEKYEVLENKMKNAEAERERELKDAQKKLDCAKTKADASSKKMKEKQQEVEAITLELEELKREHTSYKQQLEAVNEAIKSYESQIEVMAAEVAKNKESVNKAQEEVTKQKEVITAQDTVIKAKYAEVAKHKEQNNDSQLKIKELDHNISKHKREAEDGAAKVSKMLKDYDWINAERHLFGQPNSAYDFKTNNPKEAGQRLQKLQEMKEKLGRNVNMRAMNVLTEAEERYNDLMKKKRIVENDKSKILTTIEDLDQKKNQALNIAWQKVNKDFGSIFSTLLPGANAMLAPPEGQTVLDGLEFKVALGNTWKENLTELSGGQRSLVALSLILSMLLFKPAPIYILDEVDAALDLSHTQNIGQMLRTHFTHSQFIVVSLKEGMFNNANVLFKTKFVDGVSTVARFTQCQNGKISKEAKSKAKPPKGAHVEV
UniProt O14508, whole entry, looked up: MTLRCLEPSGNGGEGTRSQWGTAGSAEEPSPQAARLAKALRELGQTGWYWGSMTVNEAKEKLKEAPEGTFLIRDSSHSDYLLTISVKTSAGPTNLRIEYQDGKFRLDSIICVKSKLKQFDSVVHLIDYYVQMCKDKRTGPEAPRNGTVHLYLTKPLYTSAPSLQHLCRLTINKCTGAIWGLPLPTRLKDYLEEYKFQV
UniProt Q7KZF4: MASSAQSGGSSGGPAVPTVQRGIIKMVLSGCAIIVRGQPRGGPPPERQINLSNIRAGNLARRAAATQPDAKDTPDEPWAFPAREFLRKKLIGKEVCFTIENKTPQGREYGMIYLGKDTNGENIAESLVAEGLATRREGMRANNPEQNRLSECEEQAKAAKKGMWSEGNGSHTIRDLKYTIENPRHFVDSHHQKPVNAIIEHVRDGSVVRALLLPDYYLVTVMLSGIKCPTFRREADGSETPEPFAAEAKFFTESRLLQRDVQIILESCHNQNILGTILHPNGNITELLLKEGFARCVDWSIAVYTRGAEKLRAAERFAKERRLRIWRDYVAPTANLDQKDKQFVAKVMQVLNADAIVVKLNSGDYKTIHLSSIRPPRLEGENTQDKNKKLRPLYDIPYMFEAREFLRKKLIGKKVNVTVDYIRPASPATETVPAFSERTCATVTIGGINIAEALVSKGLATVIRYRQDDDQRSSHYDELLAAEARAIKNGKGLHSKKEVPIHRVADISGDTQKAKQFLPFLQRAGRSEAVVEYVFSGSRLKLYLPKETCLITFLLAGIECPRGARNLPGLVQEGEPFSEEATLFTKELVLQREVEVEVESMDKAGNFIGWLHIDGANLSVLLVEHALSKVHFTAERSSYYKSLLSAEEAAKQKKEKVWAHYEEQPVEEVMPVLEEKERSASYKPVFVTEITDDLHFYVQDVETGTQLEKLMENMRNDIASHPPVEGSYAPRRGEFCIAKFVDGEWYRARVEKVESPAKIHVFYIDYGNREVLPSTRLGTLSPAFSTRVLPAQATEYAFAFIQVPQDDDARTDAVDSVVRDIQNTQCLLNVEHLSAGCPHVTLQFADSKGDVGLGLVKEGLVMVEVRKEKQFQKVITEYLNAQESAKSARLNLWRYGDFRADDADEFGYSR
UniProt O00161: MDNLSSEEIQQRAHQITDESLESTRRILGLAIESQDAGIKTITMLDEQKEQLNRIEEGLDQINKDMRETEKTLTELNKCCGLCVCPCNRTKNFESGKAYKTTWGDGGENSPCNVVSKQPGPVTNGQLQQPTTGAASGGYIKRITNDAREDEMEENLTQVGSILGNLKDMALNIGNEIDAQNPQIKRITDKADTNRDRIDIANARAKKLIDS
UniProt P62306, whole entry, looked up: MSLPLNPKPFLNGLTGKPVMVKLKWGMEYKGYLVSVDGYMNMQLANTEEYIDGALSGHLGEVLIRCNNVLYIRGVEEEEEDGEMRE
UniProt Q15506: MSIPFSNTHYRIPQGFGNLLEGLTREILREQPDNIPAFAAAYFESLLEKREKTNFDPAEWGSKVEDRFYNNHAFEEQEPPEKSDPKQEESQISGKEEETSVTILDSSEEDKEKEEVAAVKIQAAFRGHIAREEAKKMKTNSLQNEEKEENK
UniProt Q96BD0: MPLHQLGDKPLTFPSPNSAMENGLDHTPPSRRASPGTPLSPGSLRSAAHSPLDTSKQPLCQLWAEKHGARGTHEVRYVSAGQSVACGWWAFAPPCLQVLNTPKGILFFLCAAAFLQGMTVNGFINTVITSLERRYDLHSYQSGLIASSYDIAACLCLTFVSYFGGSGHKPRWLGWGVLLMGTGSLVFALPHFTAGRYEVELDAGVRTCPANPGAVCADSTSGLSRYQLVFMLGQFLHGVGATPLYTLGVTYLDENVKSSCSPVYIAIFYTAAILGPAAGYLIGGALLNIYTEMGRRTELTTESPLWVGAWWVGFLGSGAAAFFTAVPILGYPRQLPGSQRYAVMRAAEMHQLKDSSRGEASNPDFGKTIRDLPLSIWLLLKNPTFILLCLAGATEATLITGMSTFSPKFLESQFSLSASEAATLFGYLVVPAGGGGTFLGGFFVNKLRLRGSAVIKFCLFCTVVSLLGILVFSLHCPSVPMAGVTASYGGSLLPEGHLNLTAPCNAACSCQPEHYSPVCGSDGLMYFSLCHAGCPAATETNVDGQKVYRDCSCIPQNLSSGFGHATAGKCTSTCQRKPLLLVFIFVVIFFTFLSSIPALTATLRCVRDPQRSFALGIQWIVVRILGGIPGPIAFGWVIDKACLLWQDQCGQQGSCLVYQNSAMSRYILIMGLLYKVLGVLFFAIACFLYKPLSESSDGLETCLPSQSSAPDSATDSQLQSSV
UniProt P09661: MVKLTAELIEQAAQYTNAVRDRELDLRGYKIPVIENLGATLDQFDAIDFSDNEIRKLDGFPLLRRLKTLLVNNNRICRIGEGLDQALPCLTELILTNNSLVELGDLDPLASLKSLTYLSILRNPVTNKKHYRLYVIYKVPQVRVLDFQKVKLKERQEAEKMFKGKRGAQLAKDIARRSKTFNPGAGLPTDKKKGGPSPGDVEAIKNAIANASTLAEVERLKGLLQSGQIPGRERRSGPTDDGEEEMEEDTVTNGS
UniProt Q16637, whole entry, looked up: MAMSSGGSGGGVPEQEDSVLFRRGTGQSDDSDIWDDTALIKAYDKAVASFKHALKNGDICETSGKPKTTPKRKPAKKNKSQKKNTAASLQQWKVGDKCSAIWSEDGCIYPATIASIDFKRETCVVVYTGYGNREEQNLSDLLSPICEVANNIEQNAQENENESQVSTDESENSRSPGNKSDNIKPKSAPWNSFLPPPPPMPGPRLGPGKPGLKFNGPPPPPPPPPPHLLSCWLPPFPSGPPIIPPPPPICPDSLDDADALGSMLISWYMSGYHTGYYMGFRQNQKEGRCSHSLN

Compound: O=C(CCCCCCNC(=O)c1cnc(N(c2ccccc2)c2ccccc2Cl)nc1)NO [citarinostat]
Assay: log2 fold change, soluble protein after heating vs DMSO (PISA); higher = thermal stabilisation; K562 cells, 10 uM, 30 min; active = over 0.2 and 3.5 SD of the protein, either way, in both replicates (recomputed)
How it was run: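 K562 cells at 2×10^6 cells/mL were exposed to 10 μM compound for 30 min, then aliquots were heated for 3 min across 48°C-58°C, pooled, and extracted in PBS containing 0.5% NP-40 at 4°C. The supernatant after 21,000xg for 90 min was taken as soluble protein and measured by TMTpro 16plex LC-MS/MS with channel sums equalised. Thermal stability is reported relative to control samples, with values from duplicates. Fold changes are given on a log2 scale.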

log2 fold change, inactive:
SMARCC2 (UniProt Q8TAQ2) 0.087
SNF8 (UniProt Q96H20) 0.009
SNCA (UniProt P37840) 0.042
SMS (UniProt P52788) 0.041
SMARCC1 (UniProt Q92922) 0.049
SLC9A1 (UniProt P19634) -0.089
SMIM12 (UniProt Q96EX1) 0.129
SMC2 (UniProt O95347) 0.03
SNU13, A0A3B3IUA2 -0.063
SMU1 (UniProt Q2TAY7) -0.016
SOCS2 (UniProt O14508) 0.017
SND1 (UniProt Q7KZF4) -0.08
SNRPD2 (UniProt P62316) 0.004
SNAP23 (UniProt O00161) -0.015
SNRPF (UniProt P62306) 0.09
SPA17 (UniProt Q15506) -0.046
SNRNP70 (UniProt P08621) -0.079
SLCO4A1 (UniProt Q96BD0) -0.044
SMC4 (UniProt Q9NTJ3) 0.048
SNRPA1 (UniProt P09661) -0.029
SMN1 (UniProt Q16637) 0.03
SMIM8 (UniProt Q96KF7) -0.014
SNRPC (UniProt Q5TAL2) 0.068
SMC3 (UniProt Q9UQE7) 0.05

Two neighbouring records already listed, for reference:
log2 fold change, inactive:
SMN1 (UniProt Q16637) 0.03
SMIM8 (UniProt Q96KF7) -0.014
